The other results are listed elsewhere or left out. Further columns of the screen follow, without active or inactive calls. The list favours compounds with an active or inconclusive main result. Words in brackets tell the shape of the fitted curve; partial curves, single points and poor fits give uncertain potencies.

A short description of the experiment: qHTS Assay for Modulators of Lamin A Splicing. The following applies: HeLa LMNA splicing GFP/RFP minigene ratio, 48 h. In short, it runs like this:
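Read-out is the ratio of GFP to DsRed2 object intensity, acquired by 488 nm laser-scanning cytometry on HeLa lamin A-EGFP minigene reporter cells. Compound incubation 48 hrs at 37 °C in Opti-MEM with 2% FBS; DMSO 0.5% final.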
In general terms: Quantitative high-throughput screening tests each substance at several concentrations.

[1] abbreviates: measured here: RFP viability control channel.
Setting [2] is: measured here: GFP splicing reporter channel.

One may read the AC50 as the concentration at which the activity in the assay is half-maximal. In the case of `Cn1c(CNc2ccccc2O)nc2ccccc21`, the AC50 under setting [1] is 12.6 µM [rising, single point].

As for `CN(c1ccccc1)S(=O)(=O)c1cccc(NC(=O)CSc2nncs2)c1`, under setting [1], the AC50 is 15.8 µM [rising, partial curve].

For `COc1cc(OC)cc(C(=O)N[C@H](C(=O)N2CCc3ccccc32)C(C)C)c1`, the AC50 under setting [1] is 28.2 µM [rising, partial curve].

As for `CC1=C(C)/C(=N\OS(=O)(=O)c2ccccc2)C=CC1=O`, the AC50 was 22.4 µM [falling, single point] under setting [2] and 14.1 µM [falling, partial curve] under setting [1].

Take `COc1cc(C(=O)NCc2ccc3c(c2)CCN3C(=O)c2ccncc2)cc(OC)c1OC`: the AC50 under setting [1] is 0.0891 µM [rising, full curve, poor fit].

With `COc1ccc(C(=O)/C=C/c2ccc(O)cc2)c(O)c1CC=C(C)C`, the AC50 is, setting by setting: under setting [2], 10 µM [rising, partial curve]; under setting [1], 14.1 µM [rising, single point].

Turning to `Cc1cc(Cl)ccc1OCCCC(=O)N1CCCc2ccccc21`, the AC50 under setting [2] is 35.5 µM [rising, single point] and the AC50 under setting [1] was 31.6 µM [rising, single point].

Regarding `O=C(Cc1ccc(Cl)c(Cl)c1)Nc1cccc2ncccc12`, under setting [2], the AC50 was 4.47 µM [falling, partial curve, poor fit].

Take `CCOC(=O)c1ccc(NC(=S)N(Cc2cccnc2)Cc2ccco2)cc1`: the half-maximal activity concentration (AC50) under setting [2] is 10 µM [falling, partial curve, poor fit].

In the case of `CCOc1ccccc1NC(=O)NC(=O)N(C)S(C)(=O)=O`, the AC50 under setting [1] is 39.8 µM [falling, partial curve, poor fit].

Take `O=C(Nc1cccc(S(=O)(=O)N2CCCCC2)c1)c1ccc([N+](=O)[O-])o1`: the AC50 was 0.501 µM [falling, full curve, poor fit] under setting [2] and 2.24 µM [falling, partial curve] under setting [1].

Turning to `CCOc1ccc(NS(=O)(=O)c2ccc(NC(=O)[C@@H]3CCCC[C@@H]3C(=O)O)cc2)cc1`, the AC50 is, setting by setting: under setting [2], 12.6 µM [rising, partial curve]; under setting [1], 35.5 µM [rising, single point].

Take `C[C@H]1CC[C@H]2C(=O)N3[C@H](c4ccccc4Br)[C@@H](C)CC[C@H]3C(=O)N2[C@@H]1c1ccccc1Br`: the AC50 is 35.5 µM [rising, single point] under setting [2] and 35.5 µM [rising, single point] under setting [1].

Consider `COC(=O)c1c(NC(NC(=O)C(C)C)C(Cl)(Cl)Cl)sc2c1CCC2` (stereo unspecified), for which the AC50 is, setting by setting: under setting [2], 11.2 µM [rising, single point]; under setting [1], 15.8 µM [rising, single point].

For `Cc1ccc(N)cc1-n1c(C)ccc1C`, under setting [1], the AC50 was 8.91 µM [falling, partial curve, poor fit].

For the molecule `Cc1cc(NC(=O)CSc2nnc(C)c(=O)n2N)no1`, the AC50 under setting [1] was 0.1 µM [falling, full curve, poor fit].

`COc1ccc(NC(=O)Cn2nnc(C(=O)NCCc3ccc(OC)c(OC)c3)c2N)cc1`: the AC50 under setting [1] was 3.16 µM [falling, full curve].

`CCCCN(C)S(=O)(=O)c1ccc(C(=O)Nc2nnc(CSC)o2)cc1`: the half-maximal activity concentration (AC50) is 8.91 µM [falling, partial curve] under setting [2] and 35.5 µM [falling, single point] under setting [1].

With `Cn1c(=O)n(C)c2cc(/C=N/NC(=S)NCc3ccccc3)ccc21`, the AC50 by setting is: under setting [2], 3.16 µM [falling, partial curve]; under setting [1], 3.55 µM [falling, single point].

For the molecule `S=C(Nc1ccc(Oc2ccccc2)cc1)NC1CCCCC1`, under setting [1], the AC50 is 25.1 µM [rising, partial curve, poor fit].

On to `COc1cccc(-c2nc(-c3ccc(NC(=O)c4cccs4)cc3)no2)c1`, for which the AC50 under setting [1] is 14.1 µM [falling, single point].

For `CCOC(=O)CSc1nnc(-c2cc(OC)c(OC)c(OC)c2)o1`, the AC50 under setting [2] was 0.1 µM [falling, full curve].

In the case of `CNC(=O)c1c(NC(=O)c2cc(=O)c3ccccc3o2)sc2c1CCC2`, the AC50 under setting [2] was 0.794 µM [rising, single point].

In the case of `Clc1ccc(-c2nnn(Cc3nc4ccccc4s3)n2)cc1`, the AC50 under setting [1] was 12.6 µM [rising, partial curve].

Regarding `O=S(=O)(NCc1ccncc1)c1ccc(S(=O)(=O)NCC2CCCO2)cc1` (stereo unspecified), the AC50 is, setting by setting: under setting [2], 3.55 µM [rising, partial curve]; under setting [1], 5.62 µM [rising, full curve].

Take `Cc1cc(=O)[nH]c(NN=C(CC(C)C)CC(C)C)n1`: the AC50 under setting [1] is 0.0891 µM [falling, full curve, poor fit].

On to `O=C(Nc1nc2c(s1)CCc1ccccc1-2)c1cccs1`, for which the AC50 reads like this: under setting [2], 22.4 µM [rising, partial curve]; under setting [1], 35.5 µM [rising, single point].

Consider `O=C(CCl)N1CCN2C(=O)c3ccccc3C12c1ccc(Cl)cc1` (stereo unspecified), for which, under setting [1], the AC50 is 10 µM [rising, partial curve, poor fit].

For `CCC(=O)OC1CC(C)N(C(=O)c2ccccc2)c2ccc(C)cc21` (stereo unspecified), the AC50 under setting [1] is 35.5 µM [rising, single point].

For the molecule `CCOC(=O)c1sc(-c2ccc(OC)cc2)cc1NC(C)=O`, the AC50 is 12.6 µM [rising, single point] under setting [2] and 15.8 µM [rising, single point] under setting [1].

On to `CC1CC2=C(NC(=S)NC2c2cccc(F)c2)/C(=C/c2cccc(F)c2)C1` (stereo unspecified), for which the AC50 by setting is: under setting [2], 11.2 µM [rising, partial curve, poor fit]; under setting [1], 22.4 µM [rising, partial curve].

As for `COc1ccc(Nc2nc(N3CCCCC3)nc3ccccc23)c(OC)c1`, the AC50 under setting [1] is 31.6 µM [rising, single point].

`CCCc1nc2c(sc3nc4c(cc32)COC(C)(C)C4)c(=O)n1CCN(CC)CC`: the AC50 by setting is: under setting [2], 5.62 µM [falling, single point]; under setting [1], 5.62 µM [falling, single point].

As to `CCCCNS(=O)(=O)c1ccc2nc(SCC(=O)Nc3cc(C)cc(C)c3)[nH]c2c1`, the AC50 reads like this: under setting [2], 8.91 µM [rising, partial curve, poor fit]; under setting [1], 11.2 µM [rising, partial curve, poor fit].

On to `Cc1ccc(C)c(S(=O)(=O)NCC(c2ccc(N(C)C)cc2)N2CCOCC2)c1` (stereo unspecified), for which, under setting [1], the AC50 is 12.6 µM [rising, single point].

Regarding `O=C(C1CCCCC1)N(Cc1ccccc1)c1ccccn1`, the AC50 is, setting by setting: under setting [2], 31.6 µM [rising, single point]; under setting [1], 35.5 µM [rising, single point].

Consider `O=C(NCc1ccccc1Cl)C1CCCN(c2nc3ccccc3n3cccc23)C1` (stereo unspecified), for which the AC50 by setting is: under setting [2], 20 µM [falling, single point]; under setting [1], 17.8 µM [falling, single point].

In the case of `CCOC(=O)c1c(C=O)c(C)n(Cc2ccc(C)cc2)c1C`, the AC50 under setting [1] is 7.94 µM [rising, partial curve, poor fit].

Turning to `CN1/C(=C\C=N\NC(=O)c2ccccc2Br)C(C)(C)c2ccccc21`, the AC50 under setting [1] is 22.4 µM [rising, single point].

In the case of `N#CCCn1c(=O)c(-c2cc(F)cc(F)c2)nc2cnc(Nc3ccccc3)nc21`, the AC50 under setting [1] was 7.08 µM [falling, full curve, poor fit].

Take `COc1ccc(NC(=O)Nc2cn(CC(C)C)c(=O)c3ccccc23)c(OC)c1`: the AC50 under setting [1] was 7.94 µM [rising, partial curve, poor fit].

`COC(=O)CCN(C(=O)c1cc([N+](=O)[O-])cc([N+](=O)[O-])c1)c1ccccn1`: the AC50 under setting [2] was 5.62 µM [falling, partial curve, poor fit].

As for `Cc1cc(F)ccc1S(=O)(=O)Nc1ccccc1C(=O)Nc1ccccc1-c1nc2ccccc2[nH]1`, the AC50 under setting [1] was 20 µM [rising, single point].

Turning to `O=C(NCCc1ccc(F)cc1)C(=O)NCC(c1cccs1)S(=O)(=O)c1cccs1` (stereo unspecified), the AC50 is 22.4 µM [falling, partial curve, poor fit] under setting [2] and 0.282 µM [falling, full curve, poor fit] under setting [1].

Consider `CCc1ccc(-c2csc(NC(=O)C3CC(=O)N(c4ccc5c(c4)OCCO5)C3)n2)cc1` (stereo unspecified), for which the AC50 under setting [1] was 22.4 µM [rising, single point].

On to `O=S(=O)(c1ccc(Cl)cc1)n1c(Cc2ccccc2)nc2ccccc21`, for which the AC50 under setting [1] is 20 µM [rising, single point].

Regarding `O=C(NC1CC1)C1CCC(=O)N1C1CCCC1` (stereo unspecified), the AC50 under setting [2] was 5.01 µM [rising, single point].

As for `CCCCCCNCc1ccc(Br)cc1`, under setting [1], the AC50 was 35.5 µM [rising, single point].

On to `COC(=O)c1ccc(NS(=O)(=O)c2ccc3[nH]c4c(c3c2)CCCCC4)cc1`, for which the half-maximal activity concentration (AC50) under setting [2] was 20 µM [falling, partial curve] and the AC50 under setting [1] was 12.6 µM [falling, partial curve].

Take `COC(=O)c1ccc(CSc2nnc(C)s2)cc1`: the AC50 runs as follows: under setting [2], 0.891 µM [rising, full curve, poor fit]; under setting [1], 0.891 µM [rising, full curve, poor fit].

Regarding `CCCCNC(=O)c1sc2nc(C)cc(COC)c2c1-n1cccc1`, the AC50 under setting [1] was 12.6 µM [rising, partial curve, poor fit].

For the molecule `Cn1cc[nH]c1=S`, the AC50 was 0.002 µM [falling, full curve, poor fit] under setting [2] and 0.002 µM [falling, full curve, poor fit] under setting [1].

With `COc1ccc(-c2nc3ccccc3c(=O)n2CCOc2cc(C)ccc2C)cc1`, the half-maximal activity concentration (AC50) under setting [1] was 1.58 µM [rising, single point].

Turning to `Cc1ccc(CNC(=O)c2ccc3c(c2)NC(=O)C(CS(=O)(=O)Cc2cccc(F)c2)N3)cc1` (stereo unspecified), the AC50 was 0.316 µM [falling, full curve, poor fit] under setting [2] and 0.178 µM [falling, partial curve, poor fit] under setting [1].

The record behind these values is PubChem BioAssay AID1487 (National Center for Advancing Translational Sciences (NCATS), 2009).
